For three molecules, binding results are on record in paper PMC10765089.

These are yes or no findings as the source states them, for the method shown. For part of these data: In cells and extracts the contact can be indirect. Some entries that bind do so weakly or less than the wild type. Where a sequence is shown, tags or fusion partners need not be part of it.

One experiment concerns the target T1, Mito-HA-Par6A^Cter (UniProt Q9NPB6).
T1 sequence: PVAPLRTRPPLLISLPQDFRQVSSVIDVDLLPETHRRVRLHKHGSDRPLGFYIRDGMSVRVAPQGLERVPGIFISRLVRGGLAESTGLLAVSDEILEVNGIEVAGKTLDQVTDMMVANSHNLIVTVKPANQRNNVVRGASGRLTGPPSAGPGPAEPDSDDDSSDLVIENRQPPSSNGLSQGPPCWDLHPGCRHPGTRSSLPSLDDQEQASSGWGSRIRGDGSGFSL
The experiment is described as follows: mitochondrial relocalisation; NIH/3T3 Flp-In cells transiently transfected for 24 h with a Mito-HA-tagged half of Par6A and the cytosolic GFP-tagged other half; fixed, anti-HA staining, spinning disk confocal imaging.

The next experiment concerns the target T2, Mito-HA-Par6A^Nter (UniProt Q9NPB6).
T2 sequence: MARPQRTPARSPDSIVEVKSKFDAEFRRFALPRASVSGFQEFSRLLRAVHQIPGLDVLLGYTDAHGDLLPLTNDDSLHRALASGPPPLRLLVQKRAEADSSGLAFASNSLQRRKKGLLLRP
The description is as above.

The target of the next experiment is T3, GST-Par6^Nter (UniProt Q9NPB6).
T3 sequence: T2 sequence
In words: pull-down; the two halves of Par6 expressed separately in E. coli BL21; lysates mixed and incubated with GST-4B resin for 1 hour at 4C; washed in 20 mM HEPES, 100 mM potassium acetate, 5% glycerol; western blot. In general terms: A western blot detects proteins with antibodies after separation by electrophoresis.

B1: cytosolic GFP-Par6A^Nter (domain or fragment, UniProt Q9NPB6 1-121)
chain: T2 sequence
With B1, the binding entry in the experiment with Mito-HA-Par6A^Cter is “binds”.

B2: cytosolic GFP-Par6A^Cter (domain or fragment, UniProt Q9NPB6 121-346)
chain: T1 sequence
For the molecule B2, the binding result in the experiment with Mito-HA-Par6A^Nter is “binds”.

B3: PC-Par6^Cter (domain or fragment, UniProt Q9NPB6 121-346)
chain: T1 sequence
With B3, the binding result with GST-Par6^Nter was “binds”.
